Reference: patent US12310974B1, “Method of treating post-traumatic stress disorder with carpipramine” (priority 2023, dated 2025)
At least one structure is not confirmed: it was looked up by name or label, or the drawing left a doubt.

System: PTSD patients
Experiment: Clinical case reports of patients with PTSD
Assay type: in vivo, human
Settings: Example 6: veteran; sertraline first, switched to venlafaxine, olanzapine subsequently added
Source text: A person was referred to a psychiatrist by […] general practitioner as they suffered from anxiety, sleep problems and nightmares. […] They were on leave from their position as a teacher. The subject was diagnosed with PTSD and a cognitive behavioural therapy was initiated.
A patient was followed by a psychiatrist due to depression symptoms, including sadness, feeling of hopelessness, apathy and anxiety. […] Fluoxetine was stopped after 6 months. About one year later, the depression symptoms recurred, alongside with auditory hallucinations. The patient was then. […] Three months later, fluoxetine was reintroduced alongside with risperidone. The patient's mood improved, but they still suffered from anxiety and auditory hallucinations. After 6 weeks with the combination of risperidone and fluoxetine, risperidone was replaced by carpipramine (150 mg/day).
A veteran presented to a psychiatrist with major depressive disorder (sadness, irritability, poor concentration, suicidal thoughts). […] New symptoms emerged, including nightmares and anxiety. […] Three months later, the patient relapsed, and was experiencing anxiety symptoms, nightmares and mildly depressed mood. The relapse was treated with carpipramine (initiated at 200 mg/day), which led to remission after 4 weeks of treatment. The patient's condition was stable for about 3 years. […]

With `Cc1cc2c(s1)Nc1ccccc1N=C2N1CCN(C)CC1` [Olanzapine] the “clinical outcome of earlier treatments” value was “entered in remission”.
